At least one read-out could not be matched to a standard name with certainty.
These compounds were tested on androgen signaling signature in LNCaP cells (assay: GE-HTS androgen signaling signature assay / screen). Conditions: 1 nM R1881 plus compound ~20 μM, 24 hr, count of 3 replicates.

Row | Structure (SMILES) | GE-HTS screen # replicates that score as the androgon deprived state (n = 3): KNN | GE-HTS screen # replicates that score as the androgon deprived state (n = 3): Naïve Bayes classifier (P < 0.05) | GE-HTS screen # replicates that score as the androgon deprived state (n = 3): unweighted summed score (P < 0.05) | GE-HTS screen # replicates that score as the androgon deprived state (n = 3): weighted summed score (P < 0.05)
1 | CC(=O)OC[C@@]1(O)C[C@@]23CC[C@@H]4c5ccoc5CC[C@@]4(C)[C@@H]2CC[C@@H]1C3 [cafestol acetate] | 3 | 3 | 3 | 3
2 | COC(=O)C[C@H]1C2(C)CC34OC5(C)O[C@@]6([C@H](OC)C(OC(=O)C(C)C)[C@]7(C)C(/C(=C(/OC)C(C)C)C(=O)O[C@H]7c7ccoc7)[C@@]6(O5)[C@H](OC)[C@@]3(OC)C2OC(C)=O)[C@]14C (stereo partly drawn) [chukrasin methyl ether] | 3 | 3 | 3 | 3
3 | CC(=O)OC1CCC23CC1(C)CCC2C(C)(C)CC3OC(C)=O (stereo not drawn) [clovanediol diacetate] | 3 | 3 | 3 | 3
4 | CC(=O)OCC(=O)[C@@]1(O)[C@H](C)C[C@H]2[C@@H]3CCC4=CC(=O)C=C[C@]4(C)[C@@]3(F)[C@@H](O)C[C@@]21C [dexamethasone acetate, reference compound] | 3 | 2 | 2 | 2
5 | CCCCC(=O)O[C@H]1CC[C@H]2[C@@H]3CCc4cc(O)ccc4[C@H]3CC[C@]12C [estradiol valerate, reference compound] | 3 | 3 | 0 | 0
6 | CCCCCCOc1ccccc1C(N)=O [exalamide, reference compound] | 2 | 2 | 0 | 0
7 | CC(=O)OCC(=O)[C@@]12OC(C)(C)O[C@@H]1C[C@H]1[C@@H]3C[C@H](F)C4=CC(=O)C=C[C@]4(C)[C@@]3(F)[C@@H](O)C[C@@]12C [fluocinonide, reference compound] | 2 | 2 | 0 | 1
8 | CCCCCC(=O)O[C@]1(C(C)=O)CC[C@H]2[C@@H]3CCC4=CC(=O)CC[C@]4(C)[C@H]3CC[C@@]21C [hydroxyprogesterone caproate, reference compound] | 3 | 2 | 0 | 0
9 | COc1cc(-c2oc3c(OC)c(O)cc(O)c3c(=O)c2O)ccc1O [limocitrin] | 2 | 3 | 3 | 3
10 | N=C1C=CC(=C(c2ccc(N)cc2)c2ccc(N)cc2)C=C1 [pararosaniline pamoate] | 3 | 3 | 3 | 3
11 | CCCCOc1ccc(OCCCN2CCOCC2)cc1 [pramoxine, reference compound] | 3 | 3 | 0 | 0
12 | C[C@]12C=CC(=O)C=C1CC[C@@H]1[C@@H]2C(=O)C[C@@]2(C)[C@H]1CC[C@]2(O)C(=O)CO [prednisone, reference compound] | 2 | 2 | 0 | 0
13 | CO[C@H]1C[C@@H]2CC[C@@H](C)[C@@](O)(O2)C(=O)C(=O)N2CCCC[C@H]2C(=O)O[C@H]([C@H](C)C[C@@H]2CC[C@@H](O)[C@H](OC)C2)CC(=O)[C@H](C)/C=C(\C)[C@@H](O)[C@@H](OC)C(=O)[C@H](C)C[C@H](C)/C=C/C=C/C=C/1C [rapamycin, reference compound] | 3 | 3 | 2 | 3
14 | CC(C)(C)c1ccc(C(O)CCCN2CCC(C(O)(c3ccccc3)c3ccccc3)CC2)cc1 (stereo not drawn) [terfenadine, reference compound] | 2 | 2 | 1 | 1
15 | C[C@H]1[C@H](C)CC[C@]2(C(=O)O)CC[C@]3(C)C(=CC[C@@H]4[C@@]5(C)CC[C@H](O)C(C)(C)[C@@H]5CC[C@]43C)[C@H]12 [ursolic acid] | 3 | 3 | 3 | 3

From US20110263693A1, “CELASTROL, GEDUNIN, AND DERIVATIVES THEREOF AS HSP90 INHIBITORS” (DANA-FARBER CANCER INSTITUTE, INC., priority 2006, published 2011)
